Measured values reported in PubChem BioAssay AID1117319 (Southern Research Institute, 2015).
Hit rate of the full screen: of about 260,000 compounds, about 1,500 (0.58%) were called active. The inconclusive results got no clear call from the source; some entries with a clear call stand among them for comparison.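 Rule for the calls: active = inhibition above a set limit at one or more doses, reproduced on every date tested; inconclusive = results disagree between test dates, or hit never tested in dose response; inactive = the rest.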

Protein sequences, listed by entry. Tags and fused reporters are not part of them. Lines headed by an entry give the natural chain unless they say otherwise; changes in a name come on top.
UniProt P69720: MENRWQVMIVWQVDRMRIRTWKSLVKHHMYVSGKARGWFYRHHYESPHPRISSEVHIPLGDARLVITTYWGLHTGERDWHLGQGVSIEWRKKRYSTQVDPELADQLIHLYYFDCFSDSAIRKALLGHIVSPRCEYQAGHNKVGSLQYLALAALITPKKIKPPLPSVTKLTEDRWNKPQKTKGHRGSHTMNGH
UniProt P69721: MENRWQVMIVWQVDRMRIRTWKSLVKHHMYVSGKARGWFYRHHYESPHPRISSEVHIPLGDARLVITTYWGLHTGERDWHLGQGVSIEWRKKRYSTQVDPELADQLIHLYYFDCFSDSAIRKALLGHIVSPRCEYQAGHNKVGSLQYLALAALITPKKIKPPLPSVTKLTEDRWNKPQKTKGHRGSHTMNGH
UniProt P69722: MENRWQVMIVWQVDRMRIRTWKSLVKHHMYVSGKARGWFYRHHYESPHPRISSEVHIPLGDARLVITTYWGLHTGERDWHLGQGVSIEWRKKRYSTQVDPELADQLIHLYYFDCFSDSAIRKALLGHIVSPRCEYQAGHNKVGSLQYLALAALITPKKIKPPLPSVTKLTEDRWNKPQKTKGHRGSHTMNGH
UniProt P69723: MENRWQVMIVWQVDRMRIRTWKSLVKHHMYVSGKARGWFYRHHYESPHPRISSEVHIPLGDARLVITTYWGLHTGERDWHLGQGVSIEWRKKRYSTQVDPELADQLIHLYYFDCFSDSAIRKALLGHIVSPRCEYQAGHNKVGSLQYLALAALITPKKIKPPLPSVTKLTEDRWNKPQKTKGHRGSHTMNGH
UniProt Q9HC16: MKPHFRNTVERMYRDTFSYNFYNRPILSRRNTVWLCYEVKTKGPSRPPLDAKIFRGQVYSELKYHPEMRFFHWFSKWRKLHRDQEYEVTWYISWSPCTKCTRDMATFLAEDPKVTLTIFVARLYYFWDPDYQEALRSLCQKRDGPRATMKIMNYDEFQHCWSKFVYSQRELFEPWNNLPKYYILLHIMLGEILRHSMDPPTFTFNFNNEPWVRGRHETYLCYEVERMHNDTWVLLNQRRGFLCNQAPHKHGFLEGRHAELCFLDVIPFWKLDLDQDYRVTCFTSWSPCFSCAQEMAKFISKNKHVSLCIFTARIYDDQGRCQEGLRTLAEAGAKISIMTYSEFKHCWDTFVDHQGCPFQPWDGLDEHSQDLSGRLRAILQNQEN

The compounds below were run against Virion infectivity factor (Human immunodeficiency virus type 1 group M subtype B (isolate BH10)) + Virion infectivity factor (Human immunodeficiency virus type 1 group M subtype B (isolate BRU/LAI)) + Virion infectivity factor (Human immunodeficiency virus type 1 group M subtype B (isolate PCV12)) + Virion infectivity factor (Human immunodeficiency virus type 1 group M subtype B (isolate HXB2)) + DNA dC->dU-editing enzyme APOBEC-3G (Homo sapiens) (UniProt P69720+P69721+P69722+P69723+Q9HC16) (assay: inhibitors of Vif binding to APOBEC3G peptide, primary screen, biochemical, TR-FRET, GST-Vif 1-94, biotin-A3G peptide, dose response retest (AID 1117319;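 note: Vif residues 1-94 fused to GST binding biotinylated APOBEC3G peptide 110-148; 0% = full assay without inhibitor and 100% = GST in place of GST-Vif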)). Details: active compounds read high.
For `Cc1ccc(Sc2ccc(/C=C3/C(=O)NN(c4ccccc4)C3=O)o2)cc1`, the inhibition was inactive: 22.1%.
In the case of `O=C1CC(/C=C/c2ccccc2)=Nc2ccccc2N1`, the inhibition is reported as inactive: 4.19%.
`Cc1cccc(NC2SC(=O)N(c3ccccc3)C2=O)c1` (stereo not given) was tested, and the inhibition was inconclusive: 34.5%.
`CCOc1cccc(=O)c2c(C)n(CC3CCCO3)c(C)c12` (stereo not given) was tested, and the inhibition was inconclusive: 60.8%.
`CC(=O)c1cccc(NC(=S)NC(=O)c2cccc(C)c2)c1` was tested, and the inhibition was inconclusive: 34.6%.
In the case of `Cc1noc(C)c1COC(=O)CN(C)S(=O)(=O)c1ccc(Cl)cc1`, the inhibition is reported as inconclusive: 50.4%.
In the case of `O=C(NCc1cccs1)C(Cc1ccccc1)n1cccc1` (stereo not given), the inhibition is reported as inconclusive: 51%.
With `CCN1C(=O)S/C(=C/c2ccc(Oc3ccc([N+](=O)[O-])cn3)c(OC)c2)C1=O` the inhibition was inconclusive: 40.8%.
For `Cc1oc2c(c1C(=O)O)C(=O)c1ccccc1C2=O`, the inhibition was inconclusive: 37.4%.
For `Cc1cccn2cc(-c3ccc(F)cc3)cc12`, the inhibition was inconclusive: 35.4%.
In the case of `CCOC(=O)c1cc(NC(=O)COC)ccc1O`, the inhibition is reported as inconclusive: 35.8%.
In the case of `C/C(=C/c1oc2ccc(O)cc2c1[N+](=O)[O-])N(C)C`, the inhibition is reported as inconclusive: 61.3%.
In the case of `CC1(OC(=O)C2CCCC2)C(=O)C=C2C=C(c3ccsc3)N(CCCCO)C=C2C1=O` (stereo not given), the inhibition is reported as inactive: 21.2%.
With `Cn1c(C(=O)OCC(=O)NCC2CCCO2)cc2sccc21` (stereo not given) the inhibition was inconclusive: 33.5%.
`O=C(N/N=C/c1c(O)n(Cc2ccco2)c(=O)[nH]c1=O)c1ccccc1` was tested, and the inhibition was inconclusive: 58.6%.
`O=C1/C(=C/c2ccco2)CCC1C1CCCC1` (stereo not given) was tested, and the inhibition was inactive: 25.4%.
For `O=C1NC(=Nc2ccc(Cl)cc2)/C(=C/c2ccco2)S1`, the inhibition was inconclusive: 43%.
In the case of `CN(C)CCNC(=O)Cn1nc(C(F)F)cc1C1CC1`, the inhibition is reported as inactive: 12.5%.
For `CCCn1c(=O)[nH]c(=O)c2c1nc(-c1ccc(OC(F)(F)C(F)C(F)(F)F)cc1)n2CCOC` (stereo not given), the inhibition was inconclusive: 53.5%.
In the case of `CCOc1cc(CNc2ccc(O)cc2)ccc1OCc1ccc(Cl)cc1Cl`, the inhibition is reported as inconclusive: 85.8%.
For `c1coc(-c2nc3ccccc3s2)c1`, the inhibition was inactive: 1.82%.
For `CCOc1cc(C(=O)Nc2ccc(N3CCOCC3)cc2)cc(Br)c1OC`, the inhibition was inactive: 12.9%.
`CCOC(=O)COc1cccc2c(=O)n(CC(=O)NCc3ccc4c(c3)OCO4)ccc12` was tested, and the inhibition was inconclusive: -1.71%.
In the case of `Cc1ccc2[nH]c(=O)c(CN(Cc3ccc4c(c3)OCO4)Cc3nnnn3Cc3ccco3)cc2c1`, the inhibition is reported as inconclusive: 42.2%.
For `c1ccc(Oc2cccc(NC3=NCCC3)c2)cc1`, the inhibition was inconclusive: 48.8%.
For `Brc1ccccc1OCCNCc1ccccc1`, the inhibition was inconclusive: 47.6%.
For `COCCn1c(SCC(=O)N2CCCc3ccccc32)nc2cccnc21`, the inhibition was inactive: -1.26%.
With `O=S1(=O)C=C(Oc2ccc(F)cc2)c2ccccc21` the inhibition was inconclusive: 40%.
`C=CCn1c(SCC(=O)N(C)C2CCS(=O)(=O)C2)nnc1-c1ccncc1` (stereo not given) was tested, and the inhibition was inconclusive: 53.5%.
In the case of `O=C(CN(C(=O)CNS(=O)(=O)c1ccc(F)cc1)c1ccc(F)cc1)NCc1ccco1`, the inhibition is reported as inactive: -4.81%.
`CCC1(CC)C(=O)NC(=O)NC1=Nc1ccccc1` was tested, and the inhibition was inconclusive: 37.1%.
For `CCOC(=O)NC1(Nc2ccc(C)cc2)Oc2ccccc2O1`, the inhibition was inconclusive: 40.9%.
With `CN(CC(=O)Nc1ccc(N2CCOCC2)cc1)CC(=O)Nc1ccc(N2CCOCC2)cc1` the inhibition was inconclusive: 36.5%.
With `O=C(CNCC1CCCO1)N1CCN(S(=O)(=O)c2ccc3ccccc3c2)CC1` (stereo not given) the inhibition was inconclusive: 60.1%.
In the case of `CCOC(=O)C1=CN(c2cccc(F)c2)C=C(C(=O)OCC)C1c1cc(OC)c(O)c([N+](=O)[O-])c1`, the inhibition is reported as inconclusive: 34.9%.
With `Cc1cccc(C)c1OCC(C)N` (stereo not given) the inhibition was inconclusive: 36.2%.
With `CC1(C)Cc2c(sc3nc4n(-c5ccccc5)c(=O)c(CCC(=O)O)nn4c(=O)c23)CO1` the inhibition was inconclusive: 56.4%.
With `COc1ccc(-c2c(NC(=O)c3ccco3)n(-c3ccccc3)nc(C)c2=O)cc1` the inhibition was inconclusive: 47%.
In the case of `CC1Cc2ccccc2N1S(=O)(=O)c1cccc(C(=O)c2nccn2C)c1` (stereo not given), the inhibition is reported as inconclusive: 41.2%.
In the case of `CCc1nc(-c2cc3ccc(C)cc3[nH]c2=O)no1`, the inhibition is reported as inconclusive: 54.9%.
`C=CCNc1ccc(N2C(=O)C3CCC(C)CC3C2=O)cc1[N+](=O)[O-]` (stereo not given) was tested, and the inhibition was inconclusive: 57.3%.
With `Cc1nc(N)sc1Cc1ccc2c(c1)OCO2` the inhibition was inconclusive: 34.5%.
With `C/C(=N\NC(=O)c1cccnc1)c1cccc([N+](=O)[O-])c1` the inhibition was inconclusive: 42.9%.
For `CC(=O)N1CCc2c(sc3c2c(=O)n(-c2ccccc2)c(=O)n3Cc2ccccc2Cl)C1`, the inhibition was inconclusive: 42.2%.
`COc1ccc([N+](=O)[O-])cc1N1C(=O)c2cccc3cccc(c23)C1=O` was tested, and the inhibition was inconclusive: 33.9%.
For `CC(=O)c1c(C(C)=O)c(C)n(-c2ccc(C(=O)O)cc2)c1C`, the inhibition was inconclusive: 46.9%.
In the case of `COc1ccc(OC)c(NC(=O)c2cccc(S(=O)(=O)N(Cc3ccccc3)c3ccccc3OC)c2)c1`, the inhibition is reported as inconclusive: 51.8%.
With `N#CC1=C(SCc2ccccc2Cl)NC(=O)C(C(N)=O)C1` (stereo not given) the inhibition was inconclusive: 47.7%.
With `O=C(CCSc1ccccc1)N1CCOCC1` the inhibition was inconclusive: 40.9%.
With `O=[N+]([O-])c1ccc(N/N=C/c2cccc(O)c2O)c(S(=O)(=O)N2CCOCC2)c1` the inhibition was inconclusive: 49.6%.
With `OCCN1CCN(CC(O)COc2ccc(-c3ccccc3)cc2)CC1` (stereo not given) the inhibition was inconclusive: 34.1%.
For `O=C(NCCCN1CCN(c2cccc(Cl)c2)CC1)c1ccc(N2CCCC2=O)cc1`, the inhibition was inconclusive: 42.2%.
In the case of `COc1ccccc1NC(=S)N(c1ccccc1)C(C)C`, the inhibition is reported as inconclusive: 45.4%.
`O=C1CC(c2ccccc2)CC(=O)C1Sc1ccc(Cl)cc1` (stereo not given) was tested, and the inhibition was inconclusive: 39.4%.
`CC(=O)c1ccc(NC(=O)CSc2ccc(-c3ccco3)nn2)cc1` was tested, and the inhibition was inactive: -1.56%.
For `CCOC(=O)N1CCN(S(=O)(=O)c2ccc(C(=O)Nc3nc4ccc(F)cc4s3)cc2)CC1`, the inhibition was inconclusive: 48.9%.
`COC(=O)C(OC(=O)c1ccc(OC)cc1)C(=O)OC` was tested, and the inhibition was inconclusive: 56.2%.
`CCN(CC)C(=O)CN(Cc1ccccc1)S(=O)(=O)c1ccc(F)cc1` was tested, and the inhibition was inconclusive: 35.2%.
`Cc1nc(-c2ccc(Cl)cc2)sc1C(=O)CBr` was tested, and the inhibition was inconclusive: 39.7%.
With `NC(=O)CC[C@@H]1NC(=O)[C@@H]2CCCN2C(=O)c2cc([N+](=O)[O-])cc(F)c2NCCC[C@@H](C(N)=O)NC1=O` the inhibition was inconclusive: 41.3%.
For `Cc1ccc(C(=O)N[C@H](C(=O)OCC(=O)Nc2cccc(S(N)(=O)=O)c2)C(C)C)cc1`, the inhibition was inconclusive: 34.2%.
`O=C1CCC(C(=O)O)(c2ccccc2)C1` (stereo not given) was tested, and the inhibition was inconclusive: 39.1%.
In the case of `COC(=O)CN(c1ccc(C)cc1)S(=O)(=O)c1ccc(F)cc1`, the inhibition is reported as inconclusive: 35.2%.
In the case of `O=C(CN1C(=O)NC2(CCc3ccccc3C2)C1=O)NCc1ccco1` (stereo not given), the inhibition is reported as inconclusive: 34.5%.
`CC(C(=O)O)c1ccc(-c2ccccc2)c(F)c1` (stereo not given) was tested, and the inhibition was inconclusive: 50.6%.
With `C=CCN(C)NC(=S)Nc1ccccc1` the inhibition was inconclusive: 33.1%.
For `CC(C)Cc1nnc(NS(C)(=O)=O)s1`, the inhibition was inconclusive: 35.8%.
`COc1ccc(CNCc2ccco2)cc1OCc1ccccc1` was tested, and the inhibition was inconclusive: 38.1%.
With `COc1ccc(/C=N/NC(=O)Cn2ccnc2C)cc1OC` the inhibition was inactive: -2.05%.
For `O/N=C(\c1ccc(Cl)cc1)c1cc2ccccc2o1`, the inhibition was inconclusive: 61.3%.
`O=C(CCCC(=O)OCC1CCCO1)OCC1CCCO1` (stereo not given) was tested, and the inhibition was inconclusive: 62.3%.
`CN1CCN(c2nc3c(c(=O)n(C)c(=O)n3C)n2Cc2cccc(Br)c2)CC1` was tested, and the inhibition was inconclusive: 45.4%.
For `COc1cccc(-n2c(-c3cccc(S(=O)(=O)N(C)C)c3)n[nH]c2=S)c1`, the inhibition was inconclusive: 44.8%.
In the case of `COCCNC(=S)N1CCCN(c2nc3cc(C)ccc3cc2C#N)CC1`, the inhibition is reported as inactive: 3.12%.
`Cc1cccc(NS(=O)(=O)c2ccc3[nH]c(=O)cc(C(=O)OC(C)C(=O)Nc4ccc([N+](=O)[O-])cc4)c3c2)c1` (stereo not given) was tested, and the inhibition was inconclusive: 38%.
With `COc1cc(/C=C/C(=O)OCC(=O)c2ccc(S(=O)(=O)N3CCCCC3)cc2)cc(OC)c1OC` the inhibition was inactive: -29.8%.
With `CCOC(=O)CSc1cccc2cccnc12` the inhibition was inconclusive: 36.1%.
In the case of `COc1cc2[nH]c(=S)nc(NC3CCCC3)c2cc1OC`, the inhibition is reported as inconclusive: 43.7%.
With `CC1CN(C2CCN(S(=O)(=O)c3ccc(F)cc3)CC2)CC(C)O1` (stereo not given) the inhibition was inconclusive: 52.7%.
With `CCOc1ccc(NC(c2ccccc2)P(=O)(OC)OC)cc1` (stereo not given) the inhibition was inactive: 5.04%.
In the case of `CCOC(=O)C1CCN(C(=O)Nc2ccc(OCc3ccccc3)cc2)CC1`, the inhibition is reported as inconclusive: 46.1%.
`O=C(COc1ccc2c(c1)CCC2)NCc1ccccc1` was tested, and the inhibition was inactive: 6.52%.
With `CCCCOc1ccc(C(=O)Nn2cnnc2)cc1` the inhibition was inconclusive: 37.6%.
In the case of `Cc1ccc(-c2nn3c(-c4ccco4)nnc3c3ccccc23)cc1S(=O)(=O)NCC1CCCO1` (stereo not given), the inhibition is reported as inconclusive: 39.9%.
For `CCN(CC)C(=O)c1cc(-c2ccccc2OC)on1`, the inhibition was inconclusive: 34.6%.
With `Cc1ccc(-n2cc3c(=O)n(C)c(=O)n(C)c3c2)cc1C` the inhibition was inconclusive: 56%.
In the case of `CCC(C)(C)NC(=O)C(c1ccc(O)cc1)N(CCOC)C(=O)CCC(=O)Nc1nccs1` (stereo not given), the inhibition is reported as inconclusive: 50.3%.
`COc1cccc([C@@H]2Oc3ccc(OC)cc3C(=O)[C@H]2OC(=O)Nc2cc(OC)c(OC)c(OC)c2)c1` was tested, and the inhibition was inconclusive: 41.6%.
With `CCN(CC)C(=N)/C(C#N)=N/Nc1ccccc1` the inhibition was inconclusive: 51.1%.
For `Cc1nonc1-c1csc(N)n1`, the inhibition was inactive: -6.95%.
